Reference: patent US6096707A, “Integrin binding peptide and use thereof” (BioTie Therapies Ltd., priority 1997, dated 2000)
Entries after “also recorded” stand apart in the source; their conditions may differ. Not every detail of the peptide structures is certain; ends, links or a residue may be inferred. Positions of bridges follow the written chain, without caps; N, C: chain ends. Residues, ends and D or L forms follow the SMILES beside them.

By UniProt entry, the sequences of proteins in these tests, tags left out. Where a name states a change or a piece, a line headed by the entry shows the natural chain unless it says otherwise.
UniProt P30431: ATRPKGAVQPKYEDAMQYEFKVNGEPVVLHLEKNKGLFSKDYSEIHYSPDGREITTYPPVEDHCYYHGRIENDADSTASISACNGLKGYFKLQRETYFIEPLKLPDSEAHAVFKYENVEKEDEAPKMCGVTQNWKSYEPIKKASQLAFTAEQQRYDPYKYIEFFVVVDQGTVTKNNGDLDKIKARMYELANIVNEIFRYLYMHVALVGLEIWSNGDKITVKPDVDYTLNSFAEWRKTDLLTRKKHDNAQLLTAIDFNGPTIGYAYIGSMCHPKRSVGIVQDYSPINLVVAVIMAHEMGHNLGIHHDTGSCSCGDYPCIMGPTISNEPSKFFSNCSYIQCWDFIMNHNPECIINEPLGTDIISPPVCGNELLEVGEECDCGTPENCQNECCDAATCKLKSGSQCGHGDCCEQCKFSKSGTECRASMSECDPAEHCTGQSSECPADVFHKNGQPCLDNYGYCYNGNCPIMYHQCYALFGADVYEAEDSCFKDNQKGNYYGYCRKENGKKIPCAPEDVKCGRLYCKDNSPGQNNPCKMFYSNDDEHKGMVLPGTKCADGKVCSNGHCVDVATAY

Legend:
[1] = biological target: T1, human recombinant integrin α2I domain (rα2I) (Homo sapiens, UniProt P17301); experiment: Inhibition of europium labeled rα2I binding to coated matrix proteins (type I collagen, type IV collagen, laminin-1); conditions: for inhibition of rα2I binding to laminin-1: wells precoated with laminin-1; for inhibition of rα2I binding to type IV collagen: wells precoated with type IV collagen; for inhibition of rα2I binding (adhesion) to type I collagen: peptide added with rα2I, wells precoated with type I collagen
T1 construct: GST (glutathione S-transferase, pGEX2T) (N, cleaved yes); made in house; host or cells: E. coli BL21 (pJKα2I, pGEX2T backbone)
T1 sequence (P17301 153-368): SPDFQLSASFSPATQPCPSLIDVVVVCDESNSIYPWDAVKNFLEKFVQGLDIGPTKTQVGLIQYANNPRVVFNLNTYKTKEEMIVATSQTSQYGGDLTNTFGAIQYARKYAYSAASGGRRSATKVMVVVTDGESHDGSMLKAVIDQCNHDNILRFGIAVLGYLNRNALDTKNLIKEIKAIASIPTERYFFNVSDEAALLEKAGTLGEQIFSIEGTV

[2] = biological target: T1, human recombinant integrin α2I domain (rα2I); experiment: rα2I binding to coated echovirus-1 in the presence of peptide; conditions: peptide added with rα2I
[3] = test system: HOS-MNNG osteosarcoma cells; experiment: Cell migration assay on type I collagen; format: cell-based, human; conditions: peptide 500 μM, fresh peptide daily, 4 days, area covered by cells
[4] = biological target: T1, human recombinant integrin α2I domain (rα2I); experiment: Solid phase binding of europium labeled rα2I to coated peptides or venom; conditions: for binding of europium labeled rα2I to solid phase bound substance: substance coated to microtiter wells, rα2I-Eu 3 h, 2 mM MgCl2
rα2I domain = biological target: T2, rα2I domain (Homo sapiens, UniProt P17301); experiment: Binding assay using biotinylated 229ox on solid phase bound rα2I
T2 construct: GST (glutathione S-transferase, pGEX2T) (N, cleaved yes); made in house; host or cells: E. coli BL21 (pJKα2I, pGEX2T backbone)
T2 sequence (P17301 153-368): T1 sequence (P17301 153-368)

biotinylated 229ox = biological target: T3, biotinylated 229ox (Bothrops jararaca, UniProt P30431); experiment: Binding of biotinylated 229ox to solid phase bound α2I domain derived peptides; conditions: 100 μM biotinylated 229ox
T3 construct: made in house; host or cells: chemical synthesis (Fmoc), oxidised to the cyclic form

## CC(C)[C@@H]1NC(=O)[C@H](CC(=O)O)NC(=O)[C@H](C)NC(=O)[C@@H]2CCCN2C(=O)[C@@H](N)CSSC[C@@H](C(=O)O)NC(=O)[C@H](CC(N)=O)NC(=O)[C@H](CCCCN)NC(=O)[C@H](Cc2c[nH]cn2)NC(=O)[C@H](Cc2ccccc2)NC1=O [225ox, CPADVFHKNC] (H-CPADVFHKNC-OH; disulfide 1-10)
[1]
  inhibition of rα2I binding to laminin-1: no effect
  inhibition of rα2I binding to type IV collagen: no effect
[2]
  increase of rα2I binding to coated echovirus-1: no effect
[3]
  migration of HOS-MNNG cells on type I collagen: not affected

## C[C@@H](O)[C@@H]1NC(=O)[C@@H](N)CSSC[C@@H](C(=O)O)NC(=O)[C@H](CC(N)=O)NC(=O)[C@H](CC(=O)O)NC(=O)[C@H](Cc2c[nH]cn2)NC(=O)[C@H](CCCCN)NC(=O)[C@H](CCCCN)NC(=O)[C@H](CCCNC(=N)N)NC1=O [248ox, CTRKKHDNC] (H-CTRKKHDNC-OH; disulfide 1-9)
[1]
  concentration of maximal inhibition of rα2I domain binding to collagen: 10 µM
[1]; inhibition of rα2I domain binding to collagen
  effectiveness relative to the longer peptide 229ox: more than 10 fold

## C[C@@H]1NC(=O)[C@H](CC(N)=O)NC(=O)[C@H](CC(=O)O)NC(=O)[C@H](Cc2c[nH]cn2)NC(=O)[C@H](CCCCN)NC(=O)[C@H](CCCCN)NC(=O)[C@H](CCCNC(=N)N)NC(=O)[C@H]([C@@H](C)O)NC(=O)[C@@H](N)CSSC[C@@H](C(=O)O)NC(=O)[C@H](CCC(N)=O)NC1=O [229ox, CTRKKHDNAQC] (H-CTRKKHDNAQC-OH; disulfide 1-11)
[4]; Mg++ versus EDTA
  cation dependence of europium labeled rα2I binding to solid phase bound peptide: dependent on divalent cations
[4]; solid phase bound peptide
  coating concentration at which significant binding of rα2I was observed: 75 µg/mL
[4]
  binding of europium labeled rα2I to solid phase bound substance: bound to rα2I-domain efficiently; also recorded: concentration dependent
[4]; listed as CTRKKHDNAQC
  binding of europium labeled rα2I to solid phase bound substance: strongly bind
[4]; two hour follow-up, 10-fold excess of unlabeled rα2I domain added
  detachment of europium-labeled rα2I adhered to the peptide: no detectable detachment
[1]; peptide 500 μM
  inhibition of rα2I binding to type I collagen: almost completely inhibited
[1]
  inhibition of rα2I binding (adhesion) to type I collagen: showed the ability to inhibit
  inhibition of rα2I binding to laminin-1: inhibited
  inhibition of rα2I binding to type IV collagen: inhibited
[2]
  increase of rα2I binding to coated echovirus-1: about 10 fold
rα2I domain; 100 μM biotinylated 229ox, 2 mM MgCl2
  binding of biotinylated 229ox to solid phase bound rα2I: significantly
rα2I domain; Mg++ versus EDTA
  cation dependence of biotinylated 229ox binding to solid phase bound rα2I: dependent on divalent cations
[3]
  migration of HOS-MNNG cells on type I collagen: inhibited significantly

## C[C@H](NC(=O)[C@H](CC(N)=O)NC(=O)[C@H](CC(=O)O)NC(=O)[C@H](Cc1c[nH]cn1)NC(=O)[C@H](CCCCN)NC(=O)[C@H](CCCCN)NC(=O)[C@H](CCCNC(=N)N)NC(=O)[C@@H](NC(=O)[C@@H](N)CS)[C@@H](C)O)C(=O)N[C@@H](CCC(N)=O)C(=O)N[C@@H](CS)C(=O)O [linear p229, CTRKKHDNAQC] (H-CTRKKHDNAQC-OH)
[1]
  inhibition of rα2I binding (adhesion) to type I collagen: only little effect

## C[C@H](NC(=O)[C@H](C)NC(=O)[C@H](CO)NC(=O)[C@H](Cc1ccc(O)cc1)NC(=O)[C@H](C)NC(=O)[C@H](Cc1ccc(O)cc1)NC(=O)[C@H](CCCCN)NC(=O)[C@@H](N)CCCNC(=N)N)C(=O)N[C@@H](CO)C(=O)NCC(=O)NCC(=O)N[C@@H](CCCNC(=N)N)C(=O)N[C@@H](CCCNC(=N)N)C(=O)N[C@@H](CO)C(=O)N[C@@H](C)C(=O)N[C@H](C(=O)O)[C@@H](C)O [P9, RKYAYSAASGGRRSAT] (H-RKYAYSAASGGRRSAT-OH)
Biotinylated 229ox
  binding of biotinylated 229ox to the solid phase bound α2I domain peptide: significantly
